From the supplement of paper PMC10849652
The list shows a part of the results.

Amino acid sequences for entries named in this document (tags omitted). A change or cut given only in a name is not applied to a line headed by its entry.
UniProt O75843: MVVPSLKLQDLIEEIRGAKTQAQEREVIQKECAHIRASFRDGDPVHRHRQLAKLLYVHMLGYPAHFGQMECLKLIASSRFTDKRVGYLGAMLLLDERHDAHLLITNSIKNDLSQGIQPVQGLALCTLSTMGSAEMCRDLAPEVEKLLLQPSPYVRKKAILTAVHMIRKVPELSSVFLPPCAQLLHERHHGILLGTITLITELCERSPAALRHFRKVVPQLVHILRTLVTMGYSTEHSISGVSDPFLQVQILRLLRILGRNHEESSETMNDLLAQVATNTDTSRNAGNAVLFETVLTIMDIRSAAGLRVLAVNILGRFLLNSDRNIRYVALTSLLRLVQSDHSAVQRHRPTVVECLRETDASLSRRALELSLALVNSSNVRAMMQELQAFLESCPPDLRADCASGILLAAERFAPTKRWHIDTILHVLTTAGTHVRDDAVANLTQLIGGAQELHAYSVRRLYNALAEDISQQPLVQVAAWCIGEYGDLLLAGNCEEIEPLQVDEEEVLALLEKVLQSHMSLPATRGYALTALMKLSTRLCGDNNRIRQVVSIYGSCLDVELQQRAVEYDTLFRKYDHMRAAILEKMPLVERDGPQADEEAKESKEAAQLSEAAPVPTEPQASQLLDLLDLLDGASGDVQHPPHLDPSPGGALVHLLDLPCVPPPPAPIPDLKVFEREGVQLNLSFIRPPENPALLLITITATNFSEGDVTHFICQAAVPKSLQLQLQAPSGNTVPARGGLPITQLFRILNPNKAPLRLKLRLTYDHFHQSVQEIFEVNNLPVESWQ
UniProt P63010: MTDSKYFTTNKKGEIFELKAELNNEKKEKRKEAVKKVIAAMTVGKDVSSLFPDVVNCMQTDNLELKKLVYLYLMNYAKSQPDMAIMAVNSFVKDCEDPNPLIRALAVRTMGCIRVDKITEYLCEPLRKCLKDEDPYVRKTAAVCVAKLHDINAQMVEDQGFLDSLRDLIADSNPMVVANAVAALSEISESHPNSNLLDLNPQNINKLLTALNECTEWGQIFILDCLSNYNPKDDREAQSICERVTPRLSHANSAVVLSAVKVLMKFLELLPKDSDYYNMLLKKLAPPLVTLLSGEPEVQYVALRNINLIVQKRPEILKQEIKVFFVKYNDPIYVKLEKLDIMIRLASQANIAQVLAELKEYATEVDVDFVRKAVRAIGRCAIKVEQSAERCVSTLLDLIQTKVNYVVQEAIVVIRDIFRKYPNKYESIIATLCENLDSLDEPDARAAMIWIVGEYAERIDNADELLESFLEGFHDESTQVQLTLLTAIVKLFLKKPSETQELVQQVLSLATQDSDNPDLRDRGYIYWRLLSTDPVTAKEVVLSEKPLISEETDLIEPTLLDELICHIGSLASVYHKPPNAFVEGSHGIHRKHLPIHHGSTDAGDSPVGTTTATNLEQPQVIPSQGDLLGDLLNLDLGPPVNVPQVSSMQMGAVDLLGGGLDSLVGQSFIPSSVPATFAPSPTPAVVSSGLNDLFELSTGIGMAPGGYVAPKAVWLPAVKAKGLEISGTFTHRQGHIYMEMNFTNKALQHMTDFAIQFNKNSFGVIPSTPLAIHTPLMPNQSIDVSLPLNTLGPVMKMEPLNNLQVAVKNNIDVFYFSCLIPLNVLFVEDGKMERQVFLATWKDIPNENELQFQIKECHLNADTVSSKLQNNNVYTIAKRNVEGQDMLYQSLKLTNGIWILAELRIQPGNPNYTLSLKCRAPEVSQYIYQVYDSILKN
UniProt Q9Y673: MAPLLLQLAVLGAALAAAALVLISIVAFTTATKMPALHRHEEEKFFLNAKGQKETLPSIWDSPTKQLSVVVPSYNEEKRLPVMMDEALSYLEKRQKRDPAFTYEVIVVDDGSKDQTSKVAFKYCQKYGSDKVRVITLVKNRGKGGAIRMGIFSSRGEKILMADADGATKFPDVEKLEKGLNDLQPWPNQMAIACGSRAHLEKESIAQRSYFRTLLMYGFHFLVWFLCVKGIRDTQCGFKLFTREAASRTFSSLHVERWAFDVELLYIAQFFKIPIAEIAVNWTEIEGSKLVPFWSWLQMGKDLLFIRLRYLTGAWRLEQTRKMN
UniProt O75179: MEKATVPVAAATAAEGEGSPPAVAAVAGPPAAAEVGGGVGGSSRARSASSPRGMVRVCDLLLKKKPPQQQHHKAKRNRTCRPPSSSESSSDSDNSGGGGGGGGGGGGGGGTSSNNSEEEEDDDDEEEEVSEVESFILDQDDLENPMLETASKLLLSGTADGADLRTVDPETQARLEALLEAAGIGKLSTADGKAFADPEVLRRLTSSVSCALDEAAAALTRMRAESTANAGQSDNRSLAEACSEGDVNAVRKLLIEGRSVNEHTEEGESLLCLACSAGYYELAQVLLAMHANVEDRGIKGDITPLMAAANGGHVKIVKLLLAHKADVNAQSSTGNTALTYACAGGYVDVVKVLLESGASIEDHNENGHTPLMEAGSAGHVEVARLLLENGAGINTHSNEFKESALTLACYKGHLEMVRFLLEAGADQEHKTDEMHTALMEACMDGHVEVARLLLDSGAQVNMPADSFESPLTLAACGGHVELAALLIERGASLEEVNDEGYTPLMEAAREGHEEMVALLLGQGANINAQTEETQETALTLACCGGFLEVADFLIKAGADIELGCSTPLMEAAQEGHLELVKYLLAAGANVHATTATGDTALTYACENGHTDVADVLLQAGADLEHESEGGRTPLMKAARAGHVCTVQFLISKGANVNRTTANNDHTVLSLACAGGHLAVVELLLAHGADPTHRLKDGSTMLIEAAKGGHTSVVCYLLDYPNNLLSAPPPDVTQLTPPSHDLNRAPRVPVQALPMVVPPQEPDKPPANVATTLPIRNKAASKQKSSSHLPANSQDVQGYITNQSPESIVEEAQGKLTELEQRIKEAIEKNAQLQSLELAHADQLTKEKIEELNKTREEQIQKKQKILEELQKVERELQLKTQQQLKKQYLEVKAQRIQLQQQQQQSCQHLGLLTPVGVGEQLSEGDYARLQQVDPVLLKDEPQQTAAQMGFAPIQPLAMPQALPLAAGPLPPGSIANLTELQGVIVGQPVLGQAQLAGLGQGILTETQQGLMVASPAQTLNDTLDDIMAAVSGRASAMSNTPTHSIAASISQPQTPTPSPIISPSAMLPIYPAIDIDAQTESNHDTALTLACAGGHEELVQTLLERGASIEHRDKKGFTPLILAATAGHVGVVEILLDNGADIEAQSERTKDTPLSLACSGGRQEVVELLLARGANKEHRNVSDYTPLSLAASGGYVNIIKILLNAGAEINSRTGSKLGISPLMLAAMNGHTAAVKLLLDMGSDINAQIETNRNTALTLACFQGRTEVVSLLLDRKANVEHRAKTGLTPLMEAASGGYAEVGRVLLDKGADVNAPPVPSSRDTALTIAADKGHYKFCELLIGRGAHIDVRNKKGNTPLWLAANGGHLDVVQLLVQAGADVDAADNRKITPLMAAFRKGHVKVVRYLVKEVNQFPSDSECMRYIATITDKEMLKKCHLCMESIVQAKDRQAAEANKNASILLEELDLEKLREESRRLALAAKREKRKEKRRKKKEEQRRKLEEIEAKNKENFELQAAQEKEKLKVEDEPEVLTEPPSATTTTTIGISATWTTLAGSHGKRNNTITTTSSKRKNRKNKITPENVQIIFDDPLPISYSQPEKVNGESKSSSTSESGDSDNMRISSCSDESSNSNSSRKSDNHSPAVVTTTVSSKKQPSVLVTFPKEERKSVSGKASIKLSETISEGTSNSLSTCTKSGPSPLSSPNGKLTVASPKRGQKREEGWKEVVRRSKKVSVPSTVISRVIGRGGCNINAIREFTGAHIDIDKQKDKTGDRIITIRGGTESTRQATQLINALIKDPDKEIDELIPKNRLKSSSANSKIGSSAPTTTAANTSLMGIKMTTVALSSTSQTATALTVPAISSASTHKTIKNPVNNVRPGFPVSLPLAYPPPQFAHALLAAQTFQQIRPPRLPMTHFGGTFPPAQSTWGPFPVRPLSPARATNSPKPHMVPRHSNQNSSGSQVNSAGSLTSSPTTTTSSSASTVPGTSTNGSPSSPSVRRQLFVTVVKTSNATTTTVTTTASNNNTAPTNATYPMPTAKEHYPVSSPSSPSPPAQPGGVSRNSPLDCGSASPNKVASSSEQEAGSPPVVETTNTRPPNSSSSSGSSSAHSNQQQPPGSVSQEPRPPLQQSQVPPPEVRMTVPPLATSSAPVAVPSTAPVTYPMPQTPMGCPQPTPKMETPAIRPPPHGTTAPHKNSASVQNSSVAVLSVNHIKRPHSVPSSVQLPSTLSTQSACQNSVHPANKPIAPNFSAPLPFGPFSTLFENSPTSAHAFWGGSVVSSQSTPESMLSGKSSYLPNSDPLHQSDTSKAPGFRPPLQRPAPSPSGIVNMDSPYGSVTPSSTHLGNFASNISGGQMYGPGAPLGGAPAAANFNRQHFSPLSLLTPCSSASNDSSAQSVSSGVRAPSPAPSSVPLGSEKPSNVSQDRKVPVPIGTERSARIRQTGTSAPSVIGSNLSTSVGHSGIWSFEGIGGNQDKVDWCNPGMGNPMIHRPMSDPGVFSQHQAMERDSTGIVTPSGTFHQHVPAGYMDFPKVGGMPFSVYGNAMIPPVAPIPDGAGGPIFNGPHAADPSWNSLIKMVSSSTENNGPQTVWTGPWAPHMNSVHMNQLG
UniProt P51649: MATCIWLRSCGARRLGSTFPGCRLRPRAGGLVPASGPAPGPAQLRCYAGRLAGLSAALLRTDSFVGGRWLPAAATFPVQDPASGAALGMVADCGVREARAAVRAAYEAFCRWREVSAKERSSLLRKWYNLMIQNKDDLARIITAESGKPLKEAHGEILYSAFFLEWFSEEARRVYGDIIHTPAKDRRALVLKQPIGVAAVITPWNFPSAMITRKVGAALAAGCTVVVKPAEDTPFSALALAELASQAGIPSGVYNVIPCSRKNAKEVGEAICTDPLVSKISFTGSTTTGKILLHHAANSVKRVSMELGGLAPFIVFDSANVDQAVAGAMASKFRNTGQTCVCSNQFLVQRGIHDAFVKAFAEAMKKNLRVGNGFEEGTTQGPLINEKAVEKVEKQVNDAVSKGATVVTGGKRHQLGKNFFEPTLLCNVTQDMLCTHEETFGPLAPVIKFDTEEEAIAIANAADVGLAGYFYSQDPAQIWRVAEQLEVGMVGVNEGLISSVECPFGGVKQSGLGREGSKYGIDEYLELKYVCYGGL
UniProt Q9NQW6: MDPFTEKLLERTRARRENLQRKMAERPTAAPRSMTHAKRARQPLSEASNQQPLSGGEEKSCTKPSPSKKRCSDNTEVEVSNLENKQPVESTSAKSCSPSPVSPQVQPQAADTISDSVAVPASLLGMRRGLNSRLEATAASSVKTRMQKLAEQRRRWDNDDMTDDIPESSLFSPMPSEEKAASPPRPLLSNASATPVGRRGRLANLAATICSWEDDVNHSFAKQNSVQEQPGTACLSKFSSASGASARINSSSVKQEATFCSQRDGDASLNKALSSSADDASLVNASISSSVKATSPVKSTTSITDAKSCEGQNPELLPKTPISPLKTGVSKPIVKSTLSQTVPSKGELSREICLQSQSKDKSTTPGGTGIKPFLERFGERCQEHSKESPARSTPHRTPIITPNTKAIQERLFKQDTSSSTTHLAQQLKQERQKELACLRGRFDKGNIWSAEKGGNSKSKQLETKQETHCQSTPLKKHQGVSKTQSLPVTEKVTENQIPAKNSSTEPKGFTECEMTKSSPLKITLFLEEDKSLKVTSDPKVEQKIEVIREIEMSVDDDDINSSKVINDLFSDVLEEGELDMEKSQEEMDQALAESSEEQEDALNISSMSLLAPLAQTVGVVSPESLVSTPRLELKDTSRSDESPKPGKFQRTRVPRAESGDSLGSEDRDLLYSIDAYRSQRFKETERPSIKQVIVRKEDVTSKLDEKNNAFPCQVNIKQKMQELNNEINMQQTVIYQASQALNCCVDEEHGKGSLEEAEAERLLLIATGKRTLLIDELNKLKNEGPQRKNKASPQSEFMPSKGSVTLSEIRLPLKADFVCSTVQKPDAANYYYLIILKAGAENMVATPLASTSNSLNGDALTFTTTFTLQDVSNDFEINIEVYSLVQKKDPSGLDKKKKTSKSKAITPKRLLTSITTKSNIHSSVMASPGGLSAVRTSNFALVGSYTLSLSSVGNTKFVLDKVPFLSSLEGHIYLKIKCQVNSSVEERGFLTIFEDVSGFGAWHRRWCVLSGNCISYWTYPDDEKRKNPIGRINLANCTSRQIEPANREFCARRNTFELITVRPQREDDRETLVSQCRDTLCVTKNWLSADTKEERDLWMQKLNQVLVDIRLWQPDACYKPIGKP

Columns and labels:
Assay in all cases: log2 fold change, soluble protein after heating vs DMSO (PISA); higher = thermal stabilisation; K562 lysate, 10 uM; active = over 0.2 and 3.5 SD of the protein, either way, in both replicates (recomputed)
[1] = compound: Cc1cn(-c2cc(NC(=O)c3ccc(C)c(Nc4nccc(-c5cccnc5)n4)c3)cc(C(F)(F)F)c2)cn1 [nilotinib]
How it was run: (§1)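 Quantification was by TMTpro 16plex LC-MS/MS with equalised channel sums, applied to the supernatant after 21,000xg for 90 min. Samples were crude K562 extract at 1 mg/mL protein in PBS pH 7.4 with 1 mM MgCl2, treated with 10 μM compound for 30 min, heated for 3 min across 48°C-58°C, pooled and brought to 0.5% NP-40 at 4°C. Values are log-two fold changes in thermal stability relative to solvent controls, from duplicates.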

[2] = compound: Cc1nc(Nc2n[nH]c3c2CN(C(=O)N[C@H](CN(C)C)c2ccccc2)C3(C)C)c2sccc2n1
How it was run: as §1

[3] = compound: Cc1nc(Nc2ncc(C(=O)Nc3c(C)cccc3Cl)s2)cc(N2CCN(CCO)CC2)n1 [dasatinib]
How it was run: as §1

[4] = compound: Cc1ncc(-c2ccnc(Nc3ccc(S(C)(=O)=O)cc3)n2)n1C(C)C
How it was run: as §1

[5] = compound: Cn1cc(-c2ccc3c(c2)CCN3C(=O)Cc2cccc(C(F)(F)F)c2)c2c(N)ncnc21
How it was run: as §1

[6] = compound: Cn1cc(CNCC2CCN(c3ncc(C(=O)NO)cn3)CC2)c2ccccc21 [quisinostat]
How it was run: as §1

[7] = compound: Cn1cncc1[C@@](N)(c1ccc(Cl)cc1)c1ccc2c(c1)c(-c1cccc(Cl)c1)cc(=O)n2C [tipifarnib]
How it was run: as §1

[8] = compound: NC(=O)Nc1cc(-c2cccc(F)c2)sc1C(=O)N[C@H]1CCCNC1
How it was run: as §1

[9] = compound: NC(=O)c1cnc(N[C@@H]2CCCC[C@@H]2N)nc1Nc1cccc(-n2nccn2)c1
How it was run: as §1

[10] = compound: NC1(c2ccc(-c3nc4ccn5c(=O)[nH]nc5c4cc3-c3ccccc3)cc2)CCC1
How it was run: as §1

[11] = compound: NCC(=O)Nc1ccc(-n2nc(C(F)(F)F)cc2-c2ccc3c(ccc4ccccc43)c2)cc1
How it was run: as §1

[12] = compound: O=C(CCCCCCC(=O)Nc1ccccc1)NO [vorinostat]
How it was run: as §1

[13] = compound: O=C(O)c1ccc2c(c1)nc(Nc1cccc(Cl)c1)c1ccncc12 [silmitasertib]
How it was run: as §1

[14] = compound: O=C1NC(=O)C(c2cnc3ccccn23)=C1c1cn2c3c(cc(F)cc13)CN(C(=O)N1CCCCC1)CC2
How it was run: as §1

[15] = compound: c1cn2cc(-c3ccc4cn[nH]c4c3)nc(Nc3ccc(N4CCOCC4)cc3)c2n1 [entospletinib]
How it was run: as §1

Target	log2 fold change [1]	log2 fold change [2]	log2 fold change [3]	log2 fold change [4]	log2 fold change [5]	log2 fold change [6]	log2 fold change [7]	log2 fold change [8]	log2 fold change [9]	log2 fold change [10]	log2 fold change [11]	log2 fold change [12]	log2 fold change [13]	log2 fold change [14]	log2 fold change [15]
ALG13 (UniProt Q9NP73)	inactive: 0.089	inactive: -0.012	inactive: -0.044	inactive: 0.218	inactive: 0	inactive: -0.067	inactive: -0.036	inactive: -0.004	inactive: 0.028	inactive: -0.009	inactive: -0.027	active: -0.339	inactive: -0.01	inactive: 0.014	inactive: -0.082
ANKZF1 (UniProt Q9H8Y5)	inactive: -0.003	inactive: -0.018	inactive: -0.007	inactive: 0.025	inactive: 0.016	inactive: -0.023	inactive: -0.047	inactive: 0.021	inactive: 0.008	inactive: -0.021	inactive: -0.022	inactive: -0.037	inactive: 0.008	inactive: 0.002	inactive: -0.013
ALDH18A1 (UniProt P54886)	inactive: 0	inactive: -0.023	inactive: -0.027	inactive: -0.004	inactive: 0.007	inactive: -0.06	inactive: -0.001	inactive: 0.025	inactive: 0.023	inactive: -0.019	inactive: 0.023	active: -0.401	inactive: 0.023	inactive: -0.015	inactive: 0.022
AP3B2 isoform 4 (UniProt Q13367)	inactive: 0.005	inactive: -0.027	inactive: 0.021	inactive: 0.021	inactive: -0.01	inactive: -0.001	inactive: -0.03	inactive: -0.015	inactive: -0.004	inactive: -0.002	inactive: 0.002	inactive: -0.097	inactive: -0.022	inactive: 0.02	inactive: 0.036
AMPD2 (UniProt Q01433)	inactive: 0	inactive: -0.004	inactive: 0.024	inactive: -0.008	inactive: 0.01	inactive: 0.004	inactive: 0.026	inactive: 0.005	inactive: -0.002	inactive: 0.005	inactive: -0.014	inactive: 0.052	inactive: 0	inactive: -0.01	inactive: -0.011
AP3D1 isoform 5 (UniProt O14617)	inactive: -0.001	inactive: 0.018	inactive: -0.043	inactive: 0.002	inactive: 0.003	inactive: -0.002	inactive: -0.002	inactive: 0.016	inactive: -0.007	inactive: 0.03	inactive: -0.001	inactive: -0.015	inactive: -0.003	inactive: 0.012	inactive: 0.006
ALDH1L2 (UniProt Q3SY69)	inactive: -0.013	inactive: 0.01	inactive: -0.021	inactive: 0.012	inactive: 0.046	inactive: -0.027	inactive: 0.012	inactive: 0.026	inactive: 0.05	inactive: -0.042	inactive: 0.017	inactive: 0.106	inactive: 0.016	inactive: -0.027	inactive: 0.031
AP1G2 (UniProt O75843)	inactive: -0.013	inactive: -0.046	inactive: -0.081	inactive: -0.019	inactive: 0.048	inactive: -0.006	inactive: 0.063	inactive: 0.005	inactive: -0.012	inactive: -0.125	inactive: 0.071	active: -0.31	inactive: -0.03	inactive: 0.008	inactive: 0.018
AP2B1 isoform 2 (UniProt P63010)	inactive: -0.015	inactive: 0.004	inactive: 0.01	inactive: 0.015	inactive: -0.004	inactive: -0.007	inactive: -0.012	inactive: -0.023	inactive: -0.015	inactive: -0.001	inactive: 0.02	inactive: 0.059	inactive: 0.023	inactive: -0.002	inactive: 0.008
AP4E1 (UniProt Q9UPM8)	inactive: -0.005	inactive: -0.026	inactive: 0.021	inactive: 0.019	inactive: 0.007	inactive: -0.044	inactive: -0.035	inactive: 0.022	inactive: -0.008	inactive: 0.011	inactive: 0.011	inactive: -0.09	inactive: 0.055	inactive: 0.013	inactive: 0.03
ALMS1 (UniProt Q8TCU4)	inactive: 0.01	inactive: 0.103	inactive: 0.013	inactive: 0.016	inactive: 0.063	inactive: -0.101	inactive: -0.029	inactive: 0.081	inactive: -0.094	inactive: -0.057	inactive: 0.046	inactive: -0.034	inactive: 0.021	inactive: 0.146	inactive: -0.016
ANGEL2 (UniProt Q5VTE6)	inactive: 0.01	inactive: 0.057	inactive: -0.011	inactive: -0.033	inactive: 0.003	inactive: -0.062	inactive: 0.039	inactive: 0.035	inactive: -0.087	inactive: -0.171	inactive: -0.013	inactive: 0.202	inactive: -0.001	inactive: 0.044	inactive: -0.018
ALG5 (UniProt Q9Y673)	inactive: -0.042	inactive: -0.037	inactive: 0.027	inactive: -0.04	inactive: -0.091	inactive: 0.045	inactive: -0.033	inactive: 0.019	inactive: 0.007	inactive: 0.005	inactive: -0.057	inactive: 0.207	inactive: -0.095	inactive: -0.018	inactive: -0.003
AP4B1 (UniProt Q9Y6B7)	inactive: 0.023	inactive: 0.011	inactive: 0.032	inactive: -0.013	inactive: 0.027	inactive: 0.018	inactive: -0.051	inactive: 0.1	inactive: 0.028	inactive: 0.007	inactive: 0.08	active: -0.286	inactive: 0.037	inactive: -0.051	inactive: 0.022
ALKBH4 (UniProt Q9NXW9)	inactive: -0.053	inactive: -0.05	inactive: -0.028	inactive: -0.008	inactive: 0.007	inactive: -0.01	inactive: 0.023	inactive: 0.023	inactive: -0.013	inactive: 0.047	inactive: 0.061	active: 0.264	inactive: -0.032	inactive: -0.088	inactive: -0.012
ANXA4 (UniProt P09525)	inactive: 0.007	inactive: -0.007	inactive: 0.074	inactive: -0.013	inactive: -0.016	inactive: 0.004	inactive: -0.009	inactive: 0.034	inactive: 0.008	inactive: -0.007	inactive: 0.03	inactive: -0.003	inactive: -0.001	inactive: -0.002	inactive: -0.008
ALG9 isoform 3 (UniProt Q9H6U8)	inactive: 0.05	inactive: 0.068	inactive: -0.078	inactive: 0.027	inactive: 0.046	inactive: 0.076	inactive: 0.003	inactive: 0.078	inactive: -0.015	inactive: 0.023	inactive: 0.046	inactive: 0.13	inactive: -0.07	inactive: 0	inactive: -0.009
ANKRD17 (UniProt O75179)	inactive: -0.012	inactive: -0.022	inactive: -0.026	inactive: -0.008	inactive: 0.016	inactive: 0.018	inactive: -0.035	inactive: 0.045	inactive: 0.004	inactive: 0.012	inactive: 0	inactive: -0.112	inactive: 0.026	inactive: -0.001	inactive: -0.021
ALDOC (UniProt P09972)	inactive: 0	inactive: 0.059	inactive: 0.04	inactive: 0.004	inactive: -0.004	inactive: 0.042	inactive: 0.013	inactive: -0.022	inactive: -0.009	inactive: 0	inactive: 0.012	inactive: 0.11	inactive: 0.004	inactive: -0.01	inactive: 0.064
ALDH5A1 isoform 2 (UniProt P51649)	inactive: 0.003	inactive: -0.019	inactive: -0.005	inactive: -0.015	inactive: -0.003	inactive: 0.028	inactive: -0.063	inactive: 0.04	inactive: 0.004	inactive: -0.023	inactive: -0.02	active: 0.371	inactive: -0.005	inactive: -0.057	inactive: 0.003
ANLN (UniProt Q9NQW6)	inactive: -0.023	inactive: 0.047	inactive: -0.009	inactive: -0.018	inactive: 0.04	inactive: -0.072	inactive: -0.041	inactive: 0.006	inactive: -0.013	inactive: 0.015	inactive: 0.018	active: -0.656	inactive: -0.011	inactive: -0.009	inactive: 0

Quoted at random: two records from the list, in no set order.
Target	log2 fold change [1]	log2 fold change [2]	log2 fold change [3]	log2 fold change [4]	log2 fold change [5]	log2 fold change [6]	log2 fold change [7]	log2 fold change [8]	log2 fold change [9]	log2 fold change [10]	log2 fold change [11]	log2 fold change [12]	log2 fold change [13]	log2 fold change [14]	log2 fold change [15]
AP4E1 (UniProt Q9UPM8)	inactive: -0.005	inactive: -0.026	inactive: 0.021	inactive: 0.019	inactive: 0.007	inactive: -0.044	inactive: -0.035	inactive: 0.022	inactive: -0.008	inactive: 0.011	inactive: 0.011	inactive: -0.09	inactive: 0.055	inactive: 0.013	inactive: 0.03
ANGEL2 (UniProt Q5VTE6)	inactive: 0.01	inactive: 0.057	inactive: -0.011	inactive: -0.033	inactive: 0.003	inactive: -0.062	inactive: 0.039	inactive: 0.035	inactive: -0.087	inactive: -0.171	inactive: -0.013	inactive: 0.202	inactive: -0.001	inactive: 0.044	inactive: -0.018
